Measurements: article PMC1242139
These are yes or no findings as the source states them, for the method shown. In cells and extracts the contact can be indirect. Some binding calls cover weakened binding; strength is not graded here.

Sequences of proteins named here, by UniProt entry; tags and fusion partners are left off. Residues count along the entry.
UniProt P06494, residues 23-1257: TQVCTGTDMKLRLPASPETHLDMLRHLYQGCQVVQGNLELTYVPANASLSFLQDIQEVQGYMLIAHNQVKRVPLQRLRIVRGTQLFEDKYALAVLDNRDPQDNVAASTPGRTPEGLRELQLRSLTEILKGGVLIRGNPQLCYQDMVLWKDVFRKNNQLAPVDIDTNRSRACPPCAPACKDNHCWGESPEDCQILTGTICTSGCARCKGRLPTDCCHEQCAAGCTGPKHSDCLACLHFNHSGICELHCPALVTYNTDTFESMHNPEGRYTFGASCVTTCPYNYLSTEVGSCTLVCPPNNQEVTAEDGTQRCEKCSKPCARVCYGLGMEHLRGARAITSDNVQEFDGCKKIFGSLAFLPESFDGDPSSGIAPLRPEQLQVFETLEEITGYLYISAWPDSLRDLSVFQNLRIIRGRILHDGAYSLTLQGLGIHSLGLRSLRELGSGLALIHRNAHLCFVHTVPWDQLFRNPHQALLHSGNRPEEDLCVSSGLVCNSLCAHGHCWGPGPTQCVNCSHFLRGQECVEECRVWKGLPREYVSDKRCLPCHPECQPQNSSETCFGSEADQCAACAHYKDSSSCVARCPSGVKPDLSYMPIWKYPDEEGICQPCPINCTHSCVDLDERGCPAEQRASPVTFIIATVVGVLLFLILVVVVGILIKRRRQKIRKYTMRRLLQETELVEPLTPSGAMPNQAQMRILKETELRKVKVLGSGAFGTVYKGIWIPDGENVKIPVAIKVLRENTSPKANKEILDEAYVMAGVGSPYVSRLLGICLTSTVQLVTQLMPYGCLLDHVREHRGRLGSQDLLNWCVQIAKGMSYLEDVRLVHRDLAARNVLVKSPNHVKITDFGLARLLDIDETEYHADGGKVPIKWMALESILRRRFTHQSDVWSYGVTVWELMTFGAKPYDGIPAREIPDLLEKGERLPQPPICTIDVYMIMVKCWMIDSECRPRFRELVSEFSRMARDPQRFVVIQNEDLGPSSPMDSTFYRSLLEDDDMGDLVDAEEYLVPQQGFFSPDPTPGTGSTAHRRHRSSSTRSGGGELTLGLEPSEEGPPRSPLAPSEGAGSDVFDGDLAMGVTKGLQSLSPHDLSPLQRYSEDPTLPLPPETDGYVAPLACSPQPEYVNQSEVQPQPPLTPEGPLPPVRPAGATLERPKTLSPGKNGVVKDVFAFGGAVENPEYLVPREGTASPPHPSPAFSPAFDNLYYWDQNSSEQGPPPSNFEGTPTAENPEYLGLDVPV
UniProt Q61526, residues 20-1339: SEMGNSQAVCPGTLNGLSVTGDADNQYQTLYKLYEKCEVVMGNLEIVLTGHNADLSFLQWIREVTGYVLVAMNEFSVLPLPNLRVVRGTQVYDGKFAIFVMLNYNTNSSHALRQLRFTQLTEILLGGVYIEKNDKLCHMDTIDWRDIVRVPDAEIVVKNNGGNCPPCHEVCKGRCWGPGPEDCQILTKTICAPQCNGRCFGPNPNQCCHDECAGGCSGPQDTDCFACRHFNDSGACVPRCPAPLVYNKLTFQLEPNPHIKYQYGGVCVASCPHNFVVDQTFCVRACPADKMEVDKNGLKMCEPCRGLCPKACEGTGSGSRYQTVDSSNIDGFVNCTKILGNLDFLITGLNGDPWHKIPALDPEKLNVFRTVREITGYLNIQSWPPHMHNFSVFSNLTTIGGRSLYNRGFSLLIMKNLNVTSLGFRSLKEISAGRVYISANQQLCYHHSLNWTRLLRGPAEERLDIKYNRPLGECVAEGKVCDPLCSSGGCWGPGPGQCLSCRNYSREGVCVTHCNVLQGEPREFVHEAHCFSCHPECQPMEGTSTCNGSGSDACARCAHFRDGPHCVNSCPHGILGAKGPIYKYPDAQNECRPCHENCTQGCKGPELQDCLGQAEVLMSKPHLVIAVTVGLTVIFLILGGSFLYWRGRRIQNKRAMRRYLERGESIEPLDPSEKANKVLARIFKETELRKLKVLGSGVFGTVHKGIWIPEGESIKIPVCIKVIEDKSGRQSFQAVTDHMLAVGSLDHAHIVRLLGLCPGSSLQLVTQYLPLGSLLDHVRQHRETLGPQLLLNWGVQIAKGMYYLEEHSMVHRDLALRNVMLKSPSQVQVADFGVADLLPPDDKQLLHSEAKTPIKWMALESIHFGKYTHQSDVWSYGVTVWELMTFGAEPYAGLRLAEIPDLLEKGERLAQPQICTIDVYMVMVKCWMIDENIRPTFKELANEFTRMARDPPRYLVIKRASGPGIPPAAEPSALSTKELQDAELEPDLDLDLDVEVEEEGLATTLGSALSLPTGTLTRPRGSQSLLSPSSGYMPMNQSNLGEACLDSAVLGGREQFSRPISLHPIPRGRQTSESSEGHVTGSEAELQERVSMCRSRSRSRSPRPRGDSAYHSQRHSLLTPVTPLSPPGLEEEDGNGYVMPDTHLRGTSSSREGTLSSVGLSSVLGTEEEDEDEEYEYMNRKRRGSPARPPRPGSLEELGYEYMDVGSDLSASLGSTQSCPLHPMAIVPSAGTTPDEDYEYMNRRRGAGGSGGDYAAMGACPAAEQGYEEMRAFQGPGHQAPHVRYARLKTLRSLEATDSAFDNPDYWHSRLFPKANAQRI

Molecular target: wild-type rat c-neu/ErbB2 transgene-encoded protein (rat) (UniProt P06494)
Assay: co-IP; 200 ug total cell lysate (NP-40 lysis buffer) immunoprecipitated with anti-erbB2 antibody c-neu Ab-4 and protein A-agarose at 4°C, then Western blot for erbB2 (c-neu Ab-3) and erbB3; cells kept overnight in 0.5% FBS, then with or without 2.5 ng/ml HRG for 2 h; low level of complex in untreated …

binding: binds
Substance: endogenous mouse erbB3 (from UniProt Q61526 20-1339) (receptor)
